Source: article PMC4222456
No constants are given. Whether binding was seen depends on the method and setting. In cells and extracts the contact can be indirect. Some results given as binding are weak or reduced against the parent protein; the word gives no strength.

Biological target: T1, CARMA1 (endogenous, primary mouse CD4 T cells) (mouse (endogenous in primary CD4 T cells)) (UniProt Q8CIS0)
T1 sequence: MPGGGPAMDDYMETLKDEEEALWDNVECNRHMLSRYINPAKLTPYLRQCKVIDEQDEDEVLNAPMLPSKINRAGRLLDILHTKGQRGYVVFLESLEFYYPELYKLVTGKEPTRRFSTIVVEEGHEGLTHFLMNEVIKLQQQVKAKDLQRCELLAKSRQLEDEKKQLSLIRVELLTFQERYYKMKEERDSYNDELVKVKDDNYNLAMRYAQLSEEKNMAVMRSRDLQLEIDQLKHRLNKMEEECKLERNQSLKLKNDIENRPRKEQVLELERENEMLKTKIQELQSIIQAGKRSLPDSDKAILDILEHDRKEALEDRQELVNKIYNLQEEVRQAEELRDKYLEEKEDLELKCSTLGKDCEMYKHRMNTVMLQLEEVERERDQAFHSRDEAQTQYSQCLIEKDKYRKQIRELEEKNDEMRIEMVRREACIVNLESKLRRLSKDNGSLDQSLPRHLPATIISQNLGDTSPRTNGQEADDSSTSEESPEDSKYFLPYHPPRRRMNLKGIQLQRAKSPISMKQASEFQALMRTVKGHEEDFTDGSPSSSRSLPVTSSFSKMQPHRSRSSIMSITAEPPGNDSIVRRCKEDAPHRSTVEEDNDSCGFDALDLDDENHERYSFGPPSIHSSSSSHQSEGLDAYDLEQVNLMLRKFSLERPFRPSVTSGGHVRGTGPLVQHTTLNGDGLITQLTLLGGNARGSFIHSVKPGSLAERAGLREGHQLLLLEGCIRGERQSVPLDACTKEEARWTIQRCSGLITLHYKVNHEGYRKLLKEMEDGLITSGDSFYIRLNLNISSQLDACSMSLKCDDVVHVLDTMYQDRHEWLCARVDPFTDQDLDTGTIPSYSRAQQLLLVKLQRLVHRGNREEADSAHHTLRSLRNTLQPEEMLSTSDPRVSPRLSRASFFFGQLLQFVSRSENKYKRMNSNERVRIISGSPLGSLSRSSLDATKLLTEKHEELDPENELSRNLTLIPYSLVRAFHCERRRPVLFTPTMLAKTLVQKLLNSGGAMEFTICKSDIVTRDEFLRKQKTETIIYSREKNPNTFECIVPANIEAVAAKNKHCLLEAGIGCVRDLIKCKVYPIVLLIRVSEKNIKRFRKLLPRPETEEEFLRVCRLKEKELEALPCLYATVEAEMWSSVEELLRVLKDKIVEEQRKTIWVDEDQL
Experiment: co-IP; endogenous proteins; primary mouse CD4 T cells untreated or stimulated with P/I; anti-CARMA1 IP, Western Blotting

B1: AIP (endogenous, primary mouse CD4 T cells) (protein, UniProt O08915 1-330)
chain: MADLIARLREDGIQKRVIQEGRGELPDFQDGTKATFHFRTLHSDNEGSVIDDSRTRGKPMELIVGKKFKLPVWETIVCTMREGEIAQFLCDIKHVVLYPLVAKSLRNIAEGKDPLEGQRHCCGIAQMHEHSSLGHADLDALQQNPQPLIFHIEMLKVESPGTYQQDPWAMTDEEKAKAVPVIHQEGNRLYREGQVKEAAAKYYDAIACLKNLQMKEQPGSPDWIQLDLQITPLLLNYCQCKLVAQEYYEVLDHCSSILNKYDDNVKAYFKRGKAHAAVWNAQEAQADFAKVLELDPALAPVVSRELRALETRIRQKDEEDKARFRGIFSH
Question: How did the binding turn out when B1 was run?
Answer: Its binding is “binds”.
